Measured values taken from patent US5480887A, “Protease inhibitors” (Eli Lilly and Company, priority 1994, dated 1996).

Legend:
HIV = experiment: microbe, parasite or virus in culture; assay type: cell-based; details: Human immunodeficiency virus 1, read-out: Antiviral Activity IC90
Procedure: In addition, the compounds described in the present application may be tested using an antiviral cell culture assay as described in Weislow, O.S., J. of National Cancer Institute, 81(8), pages 577-586 (Apr. 19, 1989) herein incorporated by reference.
This assay compares the viability of HIV-infected cells in a cell culture medium relative to the viability of such cells in the presence of a test compound. The concentration of test compound necessary to inhibit 90% of the virus is then measured using the viability of the cells as an indicator of viral inhibition. This assay is carried out using cell lines that are sensitive to the lyric effects of HIV infection.
Specifically, this assay utilizes the metabolic reduction of a tetrazolium reagent, 2,3-bis[2-methoxy-4-nitro-5-sulfophenyl]-5-[(phenylamino)carbonyl]-2H-tetrazolium hydroxide (XTT). In the presence of a viable cell, the tetrazolium reagent, XTT, is reduced to provide XTT formazan which may be quantified using colorimetric determination (at 450 nm). The intensity of the chromogenic signal is directly proportional to the concentration of the XTT formazan, thus providing a measure of the quantity of viable cells.

HIV-1 Protease = molecular target: T1, HIV-1 Protease (Human immunodeficiency virus type 1 group M subtype B, UniProt P04585); experiment: biochemical
T1 construct: HIV-1 Protease
Procedure: These compounds may be assayed using two assays: (1) an enzyme inhibition assay, and (2) an antiviral cell culture assay.
This assay is described in detail in published European Patent Application (EPA) 0 526 009, herein incorporated by reference. Using this assay, a number of the compounds, prepared above, were assayed for HIV protease inhibitory activity.
The assay is unable to test compounds at less than a concentration of 0.16 ng/mL.

`CC(=O)N[C@H](CS(=O)(=O)c1ccc(F)cc1)C(=O)N[C@@H](Cc1ccccc1)[C@H](O)CN1C[C@H]2CCS[C@H]2C[C@H]1C(=O)NC(C)(C)C` [Example 22, N-t-Butyl-octahydro-5[2R-hydroxy-3S-phenylmethyl-4-aza-5-oxo-6S-N(acetyl)amino-7-p-fluorophenylsulfonyl-heptyl]-(3aR,7aS)-thieno[3,2-c]pyridine-(6S)-carboxamide] was tested, and the IC90 (HIV) was 296 nM and the IC50 (HIV-1 Protease) was 1.31 nM.
